# Assay results: PubChem BioAssay AID624002 (National Center for Advancing Translational Sciences (NCATS), 2012)
# Amino acid sequences for entries named in this document (tags omitted).
# UniProt O75874, whole entry R132H, stated change not applied: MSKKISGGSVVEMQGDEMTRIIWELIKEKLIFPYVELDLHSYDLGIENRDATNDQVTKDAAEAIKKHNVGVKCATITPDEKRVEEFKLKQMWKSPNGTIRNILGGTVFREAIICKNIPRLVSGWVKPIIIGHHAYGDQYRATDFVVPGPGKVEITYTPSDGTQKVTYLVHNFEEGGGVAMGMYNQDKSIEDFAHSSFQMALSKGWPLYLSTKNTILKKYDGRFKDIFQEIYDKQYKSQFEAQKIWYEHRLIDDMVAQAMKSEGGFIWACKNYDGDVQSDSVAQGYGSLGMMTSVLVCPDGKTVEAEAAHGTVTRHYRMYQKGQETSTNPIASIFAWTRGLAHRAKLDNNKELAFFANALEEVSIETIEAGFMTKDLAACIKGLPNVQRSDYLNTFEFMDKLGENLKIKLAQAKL
# This list was built around the results that the source calls inconclusive (neither active nor inactive); the mix of calls is not that of the screen. Where the call is inconclusive, the potency comes from a doubtful curve fit. Active and inactive are the calls of the source. The call rests on the fitted dose curve; in most records, active means well fitted inhibition curve with a large enough effect; inconclusive means small, poorly fitted or top-dose-only effect; inactive means no such curve, though single readings can be large or run the other way.
# Biological target: Isocitrate dehydrogenase [NADP] cytoplasmic (Homo sapiens) (UniProt O75874)
# Assay: qHTS for Inhibitors of mutant isocitrate dehydrogenase 1 (IDH1): Confirmation of Cherrypicks; further: nearly all actives have a fitted effect of over 50% in size
# Conditions: IDH1 R132H enzyme, NADPH diaphorase/resazurin fluorescence; series mostly up to 76.6 µM
# Outline: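 Inhibition raises residual NADPH, detected as resorufin fluorescence via diaphorase/resazurin after the R132H enzyme (5.2 nM) consumed NADPH (0.008 mM) with alpha-KG (1 mM) over 80 min at room temperature. Concentration-response curves across 76 microM to 0.15 uM were fitted.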
# Potency means the concentration at half of the fitted maximal effect.
row,SMILES,Potency
1,CCOC(=O)c1ccc(N2C(=O)c3[nH]nc(-c4ccccc4)c3C2c2cccs2)cc1 (stereo not given),inactive
2,CC[C@]12c3[nH]c4cc(-c5ccco5)ccc4c3CCN1C(=O)[C@@H](CC(=O)NC/C=C(\C)CCC=C(C)C)C[C@@H]2C(=O)N1CCN(C(=O)C2CC2)CC1,inactive
3,Cc1ccccc1/C=C/C(=O)c1ccc([N+](=O)[O-])o1,"inconclusive: 3.16 µM [inhibitor, full curve]"
4,CCc1ccc(C(=O)c2cn(Cc3ccc(F)cc3)c3cc(OC)c(OC)cc3c2=O)cc1,"inconclusive: 20 µM [inhibitor, full curve]"
5,FC(F)(F)c1cccc(Nc2c3c(nc4ccc(Cl)cc24)CCC3)c1,"inconclusive: 44.7 µM [inhibitor, partial curve, poor fit]"
6,Cc1cc(C)cc(NC(=O)CSc2c(C(C)C)cnc3c2c(=O)n(C)c(=O)n3C)c1,inactive
7,C[C@H]1CN([C@@H](C)CO)C(=O)c2cccc(NS(=O)(=O)c3ccc(Cl)cc3)c2O[C@@H]1CN(C)CC1CCCCC1,active: 31.6 µM
8,CC(C)CCNC(=O)C(c1ccc(O)cc1)N(C(=O)C1COc2ccccc2O1)c1cccc(O)c1 (stereo not given),"inconclusive: 50.1 µM [inhibitor, single point]"
9,O=C1CCCC2=C1C(c1ccc(O)c(Br)c1)C1=C(CCCC1=O)N2c1ccccc1,"inconclusive: 39.8 µM [inhibitor, partial curve]"
10,Cc1cc(NC(=O)CCC(=O)N(c2ccccc2)C(C(=O)NC2CCCC2)c2ccc(F)cc2)no1 (stereo not given),"inconclusive: 28.2 µM [inhibitor, full curve]"

# Reprinted: entries 8–9
row,SMILES,Potency
8,CC(C)CCNC(=O)C(c1ccc(O)cc1)N(C(=O)C1COc2ccccc2O1)c1cccc(O)c1 (stereo not given),"inconclusive: 50.1 µM [inhibitor, single point]"
9,O=C1CCCC2=C1C(c1ccc(O)c(Br)c1)C1=C(CCCC1=O)N2c1ccccc1,"inconclusive: 39.8 µM [inhibitor, partial curve]"
